The target in assay [1] is T1, FADD (overexpressed, Figure 4C), Q13158.
T1 chain: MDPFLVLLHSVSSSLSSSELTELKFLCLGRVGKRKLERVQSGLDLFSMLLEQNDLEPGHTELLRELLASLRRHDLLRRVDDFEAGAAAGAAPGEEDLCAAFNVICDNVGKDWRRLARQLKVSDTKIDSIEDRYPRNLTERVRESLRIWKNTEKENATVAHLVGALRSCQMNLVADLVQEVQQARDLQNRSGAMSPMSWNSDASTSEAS
The assay can be described thus: co-IP. The settings on record: remark: other sources report otherwise.

The target in assay [2] is T2, Flag-tagged procaspase-8, Q14790.
T2 chain: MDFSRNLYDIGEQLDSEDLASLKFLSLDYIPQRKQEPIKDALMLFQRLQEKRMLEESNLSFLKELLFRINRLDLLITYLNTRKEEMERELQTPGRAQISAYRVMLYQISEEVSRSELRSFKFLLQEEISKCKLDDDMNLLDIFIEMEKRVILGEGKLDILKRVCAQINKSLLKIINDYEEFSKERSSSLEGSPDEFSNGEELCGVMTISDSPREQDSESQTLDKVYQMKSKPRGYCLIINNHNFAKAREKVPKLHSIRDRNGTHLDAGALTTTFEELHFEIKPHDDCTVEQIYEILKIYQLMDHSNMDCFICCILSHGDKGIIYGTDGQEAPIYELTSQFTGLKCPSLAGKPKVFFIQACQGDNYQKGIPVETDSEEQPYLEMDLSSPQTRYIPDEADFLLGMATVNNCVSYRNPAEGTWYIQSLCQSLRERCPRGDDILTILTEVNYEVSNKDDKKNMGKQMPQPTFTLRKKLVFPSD
The assay can be described thus: co-IP. Conditions: remark: other sources report otherwise.

Here are results for one molecule from paper doi:10.1101/723718.

No constants are given. Whether binding was seen depends on the method and setting. Binding seen in cells or lysates may run through a third protein. For some assays here: Sequences can lack the tags named with a protein.

B1: endogenous TRAF2, Q12933 1-501 (protein)
chain: MAAASVTPPGSLELLQPGFSKTLLGTKLEAKYLCSACRNVLRRPFQAQCGHRYCSFCLASILSSGPQNCAACVHEGIYEEGISILESSSAFPDNAARREVESLPAVCPSDGCTWKGTLKEYESCHEGRCPLMLTECPACKGLVRLGEKERHLEHECPERSLSCRHCRAPCCGADVKAHHEVCPKFPLTCDGCGKKKIPREKFQDHVKTCGKCRVPCRFHAIGCLETVEGEKQQEHEVQWLREHLAMLLSSVLEAKPLLGDQSHAGSELLQRCESLEKKTATFENIVCVLNREVERVAMTAEACSRQHRLDQDKIEALSSKVQQLERSIGLKDLAMADLEQKVLEMEASTYDGVFIWKISDFARKRQEAVAGRIPAIFSPAFYTSRYGYKMCLRIYLNGDGTGRGTHLSLFFVVMKGPNDALLRWPFNQKVTLMLLDQNNREHVIDAFRPDVTSSSFQRPVNDMNIASGCPLFCPVSKMEAKNSYVRDDAIFIKAIVDLTGL
In the case of B1, the binding result in assay [1] and in assay [2] was “no binding” in each case.
